Measurements published in PMC5331223.

Key:
[1] = molecular target: T1, NIN (520-878) (Lotus japonicus) (UniProt Q9S7B1); assay: EMSA; details: 25 mM Tris-HCl pH 8.0, 80 mM NaCl, 35 mM KCl, 5 mM MgCl2, 10% glycerol, 1 mM DTT, 0.1% Triton; 25 nM probe, 2 ul protein (ERN1 0.75 mg/ml, NIN 1.0 mg/ml stock); recombinant protein; residues 520-878; protein details: His-tag (pET30); label: 6-FAM at 5' of strand 1
T1 sequence (looked up): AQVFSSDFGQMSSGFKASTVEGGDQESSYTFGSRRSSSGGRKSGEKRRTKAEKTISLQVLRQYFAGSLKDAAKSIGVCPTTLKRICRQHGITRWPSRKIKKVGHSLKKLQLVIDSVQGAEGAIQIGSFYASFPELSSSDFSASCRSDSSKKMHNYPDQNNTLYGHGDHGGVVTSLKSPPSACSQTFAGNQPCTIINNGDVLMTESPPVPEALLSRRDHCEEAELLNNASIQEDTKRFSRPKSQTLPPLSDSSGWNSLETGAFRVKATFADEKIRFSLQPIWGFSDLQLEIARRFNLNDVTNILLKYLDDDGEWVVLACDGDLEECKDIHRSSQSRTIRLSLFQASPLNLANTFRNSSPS

ERN1 (Lotus japonicus) = ERN1 (Lotus japonicus) (UniProt A0A1X9PY88); assay: EMSA; details: 25 mM Tris-HCl pH 8.0, 80 mM NaCl, 35 mM KCl, 5 mM MgCl2, 10% glycerol, 1 mM DTT, 0.1% Triton; 25 nM probe, 2 ul protein (ERN1 0.75 mg/ml, NIN 1.0 mg/ml stock); recombinant protein; residues 1-269; protein details: His-tag (pET30); label: 6-FAM at 5' of strand 1

Sequence | binding result [1] | binding result (ERN1 (Lotus japonicus))
ATACCCTGCCTTTTCAGACAAGTACCCGAGGCACAAAA (double strand) [Nin1 mutation probe] | binds more weakly | –
TGTCATTGTTATATTTGTCTGAGATCCCAC (double strand) [Ern1 mutation probe] | – | no binding

For some assays here: Negatives hold for the conditions tested. For some assays here: At least one verdict rests on a figure or table, not on a statement of the authors. For some assays here: The comparison behind a weaker result is the experiment's own reference, which may not be listed here. For some assays here: Where a protein sequence is shown, tags need not be part of it.
